These are yes or no findings as the source states them, for the method shown. In cells and extracts the contact can be indirect. Some entries that bind do so weakly or less than the wild type.
Target: SMC3 (mouse (endogenous in germ cells)) (UniProt Q9CW03)
Test: co-IP; Dynabead Co-IP kit; 4 ug SMC3 antibody (Abcam ab9263) or IgG control antibody covalently linked per mg of beads; germ cell protein extracts from 8 week old Stag3+/- and Stag3-/- mice; blots of the eluate

The chains behind the UniProt entries cited, without tags or fusion partners.
UniProt Q9CW03: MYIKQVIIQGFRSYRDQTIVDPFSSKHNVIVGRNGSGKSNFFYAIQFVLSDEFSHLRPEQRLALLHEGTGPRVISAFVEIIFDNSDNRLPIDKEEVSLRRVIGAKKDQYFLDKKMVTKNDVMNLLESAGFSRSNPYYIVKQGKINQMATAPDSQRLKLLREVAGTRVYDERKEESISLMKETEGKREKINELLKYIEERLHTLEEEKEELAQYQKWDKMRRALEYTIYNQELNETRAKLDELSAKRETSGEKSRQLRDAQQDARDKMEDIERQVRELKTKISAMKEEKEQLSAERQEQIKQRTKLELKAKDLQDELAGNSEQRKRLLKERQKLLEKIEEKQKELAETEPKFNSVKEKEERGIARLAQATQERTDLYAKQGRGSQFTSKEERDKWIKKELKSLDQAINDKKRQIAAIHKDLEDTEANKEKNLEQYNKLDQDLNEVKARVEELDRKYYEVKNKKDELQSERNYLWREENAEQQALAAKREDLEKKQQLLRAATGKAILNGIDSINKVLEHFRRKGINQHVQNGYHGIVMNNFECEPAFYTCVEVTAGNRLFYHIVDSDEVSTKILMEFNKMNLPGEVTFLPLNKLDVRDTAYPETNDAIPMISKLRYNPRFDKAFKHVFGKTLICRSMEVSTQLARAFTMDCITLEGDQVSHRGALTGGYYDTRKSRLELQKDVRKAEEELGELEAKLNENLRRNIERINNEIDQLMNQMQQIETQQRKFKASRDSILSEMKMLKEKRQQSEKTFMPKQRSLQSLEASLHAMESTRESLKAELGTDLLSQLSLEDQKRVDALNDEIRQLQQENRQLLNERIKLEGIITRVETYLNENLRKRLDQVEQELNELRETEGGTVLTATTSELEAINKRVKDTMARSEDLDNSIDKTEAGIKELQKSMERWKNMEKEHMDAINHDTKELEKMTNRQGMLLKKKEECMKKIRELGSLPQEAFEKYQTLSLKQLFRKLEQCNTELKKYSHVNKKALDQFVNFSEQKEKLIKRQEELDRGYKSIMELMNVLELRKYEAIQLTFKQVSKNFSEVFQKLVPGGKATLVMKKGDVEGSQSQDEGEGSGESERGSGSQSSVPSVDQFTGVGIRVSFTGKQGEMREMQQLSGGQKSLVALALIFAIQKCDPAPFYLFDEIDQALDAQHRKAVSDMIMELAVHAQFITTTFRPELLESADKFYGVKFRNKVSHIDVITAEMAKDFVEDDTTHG

- binding: binds
B1: RAD21 (protein, UniProt Q61550 1-635)
chain: MFYAHFVLSKRGPLAKIWLAAHWDKKLTKAHVFECNLESSVESIISPKVKMALRTSGHLLLGVVRIYHRKAKYLLADCNEAFIKIKMAFRPGVVDLPEENREAAYNAITLPEEFHDFDQPLPDLDDIDVAQQFSLNQSRVEEITMREEVGNISILQENDFGDFGMDDREIMREGSAFEDDDMLVSTSASNLLLEPEQSTSNLNEKMNHLEYEDQYKDDNFGEGNDGGILDDKLISNNDGGIFDDPPALSEAGVMLPEQPAHDDMDEDDNGSLGGPDSPDSVDPVEPMPTMTDQTTLVPNEEEAFALEPIDITVKETKAKRKRKLIVDSVKELDSKTIRAQLSDYSDIVTTLDLAPPTKKLMMWKETGGVEKLFFLPAQPLWNNRLLKLFTRCLTPLVPEDLRKRRKGGEADNLDEFLKEFENPEVPREEQQPQQQQPQPQRDVIDEPIIEEPSRLQDSVMEASRTTIEESAMPPPPPQGVKRKAGQIDPEPSIPPQQVEQMEIPPVELPPEEPPNICQLIPELELLPEKEKEKEKEKEEEEEEEDEDASGGDQDQEERRWNKRTQQMLHGLQRALAKTGAESISLLELCRNTNRKQAAAKFYSFLVLKKQQAIELTQEEPYSDIIATPGPRFHII

Reference: paper PMC4081007
